Data published in patent US12070454B1, “Anesthetic nerve block and method” (PFOF LLC, priority 2022, dated 2024).

Conditions: after addition of alkaline NaHCO3/Na2CO3/NaOH mixture

SMILES: CCN(CC)CC(=O)Nc1c(C)cccc1C [lidocaine]
- unprotonated (unbound) fraction: ~95%
